Assay results reported in patent US10716787B2, “Combinations” (ASTEX THERAPEUTICS LTD, priority 2014, dated 2020).

Key:
Met oncogene = assay: Microarray gene expression profiling of resistant versus parental NCI-H1581 cells; assay type: cell-based; settings: 1 microM, 1 day, 1 week and 2 weeks
Method: The insensitive cells were isolated and profiled with the aim to determine the active signaling pathways that act as drivers for their survival and/or proliferation. Therefore, NCI-H1581 cells were plated onto 10 cm Collagen I coated plates and placed in an incubator at 37° C., 5% CO2. The cells were grown in growth medium (see below), for the parental cells with or without DMSO control, or in growth medium supplemented with high dose of compound A (1 microM final concentration of compound A in the medium, compound A was added as a sample diluted from a stock solution in DMSO), for the resistant cells, over a prolonged period of time. During the time of growing out the compound insensitive cells, medium supplemented with compound A [1 microM], was changed twice weekly. In the case of the parental cells with or without DMSO control, when the cells reached the confluence close to 100% they were trypsinized and re-plated back on the plate. In the compound treated plates outgrowth of resistant clones were observed. After about 3 weeks from the initial treatment, cells were taken out of the plate by trypsinization and passaged on new plate for further expanding. Resistant cells, same as the parental cells were passaged twice weekly, but the medium of the resistant cells was always supplemented with compound A [1 microM]. (test 1) […]

parental NCI-H1581 cells = assay: Alamar blue proliferation assay, parental NCI-H1581 cells; assay type: cell-based; settings: DMSO taken as 100%
Method: (§1) This was for instance observed by a plateau in the proliferation curve around ˜10% of DMSO control (value observed in the assay for DMSO is taken as 100%, and values observed for the dose treatments with compound are calculated as % of 100% DMSO).
(§2) The insensitive cells were isolated and profiled with the aim to determine the active signaling pathways that act as drivers for their survival and/or proliferation. Therefore, NCI-H1581 cells were plated onto 10 cm Collagen I coated plates and placed in an incubator at 37° C., 5% CO2. The cells were grown in growth medium (see below), for the parental cells with or without DMSO control, or in growth medium supplemented with high dose of compound A (1 microM final concentration of compound A in the medium, compound A was added as a sample diluted from a stock solution in DMSO), for the resistant cells, over a prolonged period of time. During the time of growing out the compound insensitive cells, medium supplemented with compound A [1 microM], was changed twice weekly. […]
(§3) Compound/medium plates were placed on a shaker for 10 minutes and then 20 μl of compound in medium was added to the cells (10× dilution). Cells were incubated at 37° C. and 5% CO2 for 4 days until alamarBlue® readout.
After 4 days of incubation with compound: Add 40 μl of alamarBlue® ready to use mix to each well. […]

H1581^Met(+) cells = assay: Incucyte live cell imaging proliferation, sorted H1581 Met(+) cells; assay type: cell-based; parameters: dose or concentration left out as unconfirmed; settings: four days
Method: FIG. 4. Incucyte graph (% confluence over time) representing the proliferation of NCI-H1581 cells and NCI-H1581^Met(+) cells treated with compound A [0.1 microM] or a combination of compound A [0.1 microM] and compound D [1 microM], and DMSO as vehicle control.
Inhibition of growth of H1581^MET(+) cells by combination of FGFR and MET inhibitors. Parental, unsorted H1581 cells, and sorted H1581^Met(+) cells, subpopulation of H1581 cells that have high Met expression, were plated at 75000 cells per well in 24 well plate. One day later, cells were treated with compound A (0.1 mM) or combination of compound A (0.1 mM) and compound D (1 mM), or DMSO serving as a vehicle and the cell proliferation was assessed by measuring cell confluence over a period of four days using Incucyte live cell imaging. Images were acquired every two hours. Proliferation of cells was presented as the mean of percentage of confluence±SD (n=2).

[1] = system: most sensitive cancer cell lines; assay: Alamar blue cell based proliferation assay, most sensitive cancer cell lines
Method: as §1
Cells were seeded in 180 μl of medium at optimized cell densities in black 96 well plates with clear flat bottom. The outer wells were filled with 180 μl of medium. Cells were incubated for 24 hours at 37° C. and 5% CO2.
Next day compound dilutions were prepared in a 96 well plate with round bottom (Corning #3365). A 50× dilution of the compound was prepared in medium, 4 μl of compound stock in 196 μl of medium in a 96 well plate (Corning #3585).
as §3
After 4 days of incubation with compound: Add 40 μl of alamarBlue® ready to use mix to each well. Incubate plates at 37° C. and 5% CO2. Measure plates after 4 or 6 hours of incubation (depends on cell line). Shake plates and measure RFU at ex.: 544 nm and em.: 590 nm
The alamarBlue® Assay incorporates a fluorometric/colorimetric growth indicator based on detection of metabolic activity. […]

NCI-H1581 cells = assay: Incucyte proliferation (confluence over time), prolonged treatment of NCI-H1581 cells; assay type: cell-based; settings: 1 microM each agent
Method: FIG. 2: Incucyte graph (% confluence over time) representing the proliferation of NCI-H1581 cells treated with single agents (compound A [1 microM] or compound D [1 microM]) or combination of both compound A [1 microM] and compound D [1 microM], and DMSO as vehicle control.
as §2, with “weekly. In the case of the parental cells with or without DMSO control, when the cells reached the confluence close to 100% they were trypsinized and re-plated back on the plate. In the compound treated plates outgrowth of resistant clones were observed.” for “weekly.”

IC50 [1]: < 10 nM
SMILES: COc1cc(OC)cc(N(CCNC(C)C)c2ccc3ncc(-c4cnn(C)c4)nc3c2)c1 [compound A, N-(3,5-dimethoxyphenyl)-N′-(1-methylethyl)-N-[3-(1-methyl-1H-pyrazol-4-yl)quinoxalin-6-yl]ethane-1,2-diamine]
Met oncogene expression (microarray) (Met oncogene): upregulated in a time dependent manner
plateau in the proliferation curve (parental NCI-H1581 cells): ~10 % of DMSO control
cell growth and proliferation (confluence) (H1581^Met(+) cells): minor sensitivity
proliferation (confluence of the cells over time) (NCI-H1581 cells): initially blocked the proliferation
